Construct, isoform or probe ends are uncertain for at least one entry. The comparison behind a weaker result is the experiment's own reference, which may not be listed here.

2 sequences from publication PMC9437053 can be followed below.

The target in data set [1] is AcP-acetylated ribosomal protein S1 (AcP-S1Ac) (UniProt P0AG67). Briefly: EMSA. Particulars: AcP-acetylated, EMSA: 1 uM biotin-RNA, 1x EMSA/Gel-shift binding buffer (Beyotime), 20 C, 30 min, native PAGE in ice-cold 0.5x TBE, 170 V, salt and pH not stated, recombinant protein, residues 1-557.
In another data set the target is ribosomal protein S1 (UniProt P0AG67). In words: EMSA. Particulars: natural S1, lower than SBS-Down; EMSA: 1 uM biotin-RNA, 1x EMSA/Gel-shift binding buffer (Beyotime), 20 C, 30 min; native PAGE in ice-cold 0.5x TBE, 170 V; salt and pH not stated; recombinant protein; residues 1-557.

As for “UCGGCUCGUAUAAUGUGUGGAACGCUUUCCGUAAAUAAAGGAGAUAUACC [SBS-Up-RNA]”, the binding result in data set [1] (affinity increased vs natural S1) is given as “binds”; with ribosomal protein S1, “binds more weakly”.

Consider “UCGGCUCGUAUAAUGUGUGGAACGCUUUUACUGUUUUAAGGAGAUAUACC [SBS-Down-RNA]”, for which, in data set [1] (affinity decreased vs natural S1), the binding result is “binds more weakly”.
